Among the data in publication PMC7862700 are binding signal values, retold here.

Sequences of proteins named here, by UniProt entry; tags and fusion partners are left off. A change or cut given only in a name is not applied to a line headed by its entry.
UniProt Q01892: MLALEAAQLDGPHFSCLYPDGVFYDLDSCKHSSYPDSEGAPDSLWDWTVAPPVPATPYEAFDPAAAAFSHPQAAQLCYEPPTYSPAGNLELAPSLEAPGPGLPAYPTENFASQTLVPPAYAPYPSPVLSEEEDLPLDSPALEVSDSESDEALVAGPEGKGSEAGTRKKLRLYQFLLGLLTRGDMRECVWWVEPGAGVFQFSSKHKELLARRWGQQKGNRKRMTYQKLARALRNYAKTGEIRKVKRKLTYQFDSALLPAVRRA
UniProt P41161: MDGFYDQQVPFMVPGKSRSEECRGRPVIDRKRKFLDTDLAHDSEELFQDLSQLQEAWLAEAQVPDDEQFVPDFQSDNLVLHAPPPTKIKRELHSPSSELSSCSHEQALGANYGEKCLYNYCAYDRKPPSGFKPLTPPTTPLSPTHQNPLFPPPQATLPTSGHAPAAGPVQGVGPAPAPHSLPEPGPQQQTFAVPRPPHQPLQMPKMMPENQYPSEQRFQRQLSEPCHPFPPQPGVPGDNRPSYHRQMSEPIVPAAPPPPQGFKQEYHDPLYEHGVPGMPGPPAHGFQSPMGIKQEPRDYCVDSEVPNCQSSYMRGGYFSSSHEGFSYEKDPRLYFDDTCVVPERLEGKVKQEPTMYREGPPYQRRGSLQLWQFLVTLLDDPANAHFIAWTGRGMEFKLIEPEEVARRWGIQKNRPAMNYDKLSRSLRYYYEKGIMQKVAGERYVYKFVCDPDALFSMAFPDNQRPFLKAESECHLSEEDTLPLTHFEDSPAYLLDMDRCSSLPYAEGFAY
UniProt Q99607: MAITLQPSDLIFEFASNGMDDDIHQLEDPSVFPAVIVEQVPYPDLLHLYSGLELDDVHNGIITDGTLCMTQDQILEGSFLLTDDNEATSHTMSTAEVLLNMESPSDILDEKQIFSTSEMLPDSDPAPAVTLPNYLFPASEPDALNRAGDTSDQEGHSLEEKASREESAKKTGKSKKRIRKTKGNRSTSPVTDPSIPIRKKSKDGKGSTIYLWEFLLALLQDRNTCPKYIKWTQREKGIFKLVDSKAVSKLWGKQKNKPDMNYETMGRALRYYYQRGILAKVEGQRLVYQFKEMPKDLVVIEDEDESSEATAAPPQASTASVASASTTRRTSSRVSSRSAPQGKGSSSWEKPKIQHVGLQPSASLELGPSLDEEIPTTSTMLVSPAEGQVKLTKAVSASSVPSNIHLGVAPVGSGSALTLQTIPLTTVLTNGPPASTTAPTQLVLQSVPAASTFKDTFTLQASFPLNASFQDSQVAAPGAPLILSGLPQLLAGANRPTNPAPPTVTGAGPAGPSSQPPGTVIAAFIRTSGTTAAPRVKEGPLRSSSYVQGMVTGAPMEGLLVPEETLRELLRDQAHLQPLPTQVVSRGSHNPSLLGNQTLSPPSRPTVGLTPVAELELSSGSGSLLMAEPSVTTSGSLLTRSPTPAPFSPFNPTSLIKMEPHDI

The entries are a selection whose mix differs from that of the whole data set. At the low end of the ranking the order means little.

Targets include SPIB (UniProt Q01892); ETV5 (UniProt P41161); ELF4 (UniProt Q99607).
Holding throughout (assay): DAPPL (digital affinity profiling via proximity ligation, sequencing)
Holding throughout (conditions): 10 mM Tris-HCl pH 7.5, 50 mM NaCl, 1 mM DTT, 4% glycerol, room temperature, 30 min; GST-TFs on glutathione beads, 16-mer random dsDNA library, 0.1% …; high values mean tight binding; double strand, one strand shown; scale: fold enrichment (6-mer frequency, TF over GST control)

A further assay has as its target T1, FLI1 (UniProt Q01543).
T1 sequence: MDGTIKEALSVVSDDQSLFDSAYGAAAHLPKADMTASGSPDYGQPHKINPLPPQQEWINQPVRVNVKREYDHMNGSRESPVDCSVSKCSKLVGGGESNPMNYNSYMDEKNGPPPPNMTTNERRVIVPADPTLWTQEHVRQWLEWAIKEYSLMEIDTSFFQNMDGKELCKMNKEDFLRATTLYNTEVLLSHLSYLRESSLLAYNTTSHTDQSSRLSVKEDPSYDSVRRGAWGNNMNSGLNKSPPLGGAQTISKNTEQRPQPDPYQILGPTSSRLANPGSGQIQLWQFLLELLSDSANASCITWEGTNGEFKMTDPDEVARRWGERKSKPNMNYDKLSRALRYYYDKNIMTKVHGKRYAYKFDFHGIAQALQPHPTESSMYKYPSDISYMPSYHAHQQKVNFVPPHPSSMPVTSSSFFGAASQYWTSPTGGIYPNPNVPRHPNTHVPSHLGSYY

In the next assay the target is T2, EHF (UniProt Q9NZC4).
T2 sequence: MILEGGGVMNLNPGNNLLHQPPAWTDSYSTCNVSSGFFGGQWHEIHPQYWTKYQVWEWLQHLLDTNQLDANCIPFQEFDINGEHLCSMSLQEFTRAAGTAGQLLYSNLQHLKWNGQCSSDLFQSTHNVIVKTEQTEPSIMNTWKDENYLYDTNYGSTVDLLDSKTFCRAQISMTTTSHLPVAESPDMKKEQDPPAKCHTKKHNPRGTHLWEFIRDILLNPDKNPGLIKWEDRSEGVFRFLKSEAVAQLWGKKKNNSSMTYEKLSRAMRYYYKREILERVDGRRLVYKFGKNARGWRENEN

A further assay concerns the target T3, ETV2 (UniProt O00321).
T3 sequence: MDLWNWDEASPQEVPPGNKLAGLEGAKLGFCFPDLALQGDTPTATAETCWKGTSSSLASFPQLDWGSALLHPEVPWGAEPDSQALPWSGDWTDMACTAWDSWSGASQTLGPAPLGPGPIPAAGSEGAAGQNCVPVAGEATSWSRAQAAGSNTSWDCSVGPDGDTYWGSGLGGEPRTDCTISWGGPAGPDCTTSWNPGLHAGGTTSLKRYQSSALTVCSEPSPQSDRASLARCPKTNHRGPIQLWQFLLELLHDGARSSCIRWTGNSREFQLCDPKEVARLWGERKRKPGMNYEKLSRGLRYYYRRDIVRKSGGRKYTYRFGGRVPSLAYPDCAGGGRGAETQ

The target in another assay is T4, ETV3L (UniProt Q6ZN32).
T4 sequence: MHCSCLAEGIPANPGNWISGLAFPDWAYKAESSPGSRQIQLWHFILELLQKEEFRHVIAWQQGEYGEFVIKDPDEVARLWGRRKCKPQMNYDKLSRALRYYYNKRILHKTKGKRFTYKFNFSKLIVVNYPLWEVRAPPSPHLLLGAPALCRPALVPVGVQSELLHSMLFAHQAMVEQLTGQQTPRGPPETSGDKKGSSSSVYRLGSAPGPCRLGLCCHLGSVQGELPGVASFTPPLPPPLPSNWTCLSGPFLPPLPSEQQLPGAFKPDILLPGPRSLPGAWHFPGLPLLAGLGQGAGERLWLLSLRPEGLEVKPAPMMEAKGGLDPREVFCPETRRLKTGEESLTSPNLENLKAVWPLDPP

Take CGGGCG: the binding signal with FLI1 was 0.364; with EHF, 0.406; with SPIB, 0.417; with ETV5, 0.423; with ELF4, 0.409; with ETV2, 0.467. Further, the binding signal with ETV3L was 0.44.
Consider GGAGAT, for which the binding signal in the assay with FLI1 was 0.277; with EHF, 0.303; with SPIB it was 0.33; with ETV5, 0.328; with ELF4 it was 0.29; with ETV2 it was 0.321. Moreover, the binding signal with ETV3L turned out to be 0.284.
Turning to CCAGAG, the binding signal with FLI1 turned out to be 0.692; with EHF, 0.692; in the assay with SPIB, 0.594; with ETV5, 0.682; with ELF4, 0.705; in the assay with ETV2, 0.673. The sequence also displayed a binding signal with ETV3L of 0.67.
Turning to GTGGGT, the binding signal was found to be 0.461 with FLI1; 0.486 with EHF; 0.425 with SPIB; 0.468 with ETV5; 0.441 in the assay with ELF4; 0.517 with ETV2. This sequence also had a binding signal with ETV3L of 0.544.
Take AGTGTG: the binding signal was 0.669 with FLI1; 0.691 with EHF; 0.742 with SPIB; 0.669 in the assay with ETV5; 0.662 with ELF4; 0.77 with ETV2. Also, the binding signal with ETV3L was 0.606.
Take TAGGTG: the binding signal stood at 0.928 in the assay with FLI1; 0.862 in the assay with EHF; 0.835 with SPIB; 0.933 with ETV5; 0.9 in the assay with ELF4; 0.773 with ETV2. In the assay with ETV3L, this sequence registered a binding signal of 0.832.
Take TGAGTT: the binding signal amounted to 0.423 with FLI1; 0.381 in the assay with EHF; 0.438 in the assay with SPIB; 0.416 in the assay with ETV5; 0.411 with ELF4; 0.345 with ETV2. The same sequence had a binding signal in the assay with ETV3L of 0.41.
As to GGGTGG, the binding signal in the assay with FLI1 was 0.776; with EHF, 0.814; with SPIB it was 0.777; in the assay with ETV5 it was 0.894; with ELF4, 0.735; in the assay with ETV2, 0.698. The binding signal with ETV3L stood at 0.805.
Consider GGTCGA, for which the binding signal with FLI1 stood at 0.756; with EHF, 0.792; with SPIB, 0.781; with ETV5, 0.798; with ELF4, 0.754; with ETV2, 0.827. The sequence also showed a binding signal with ETV3L of 0.744.
Turning to AAGGGG, the binding signal worked out at 0.93 in the assay with FLI1; 0.863 with EHF; 0.927 in the assay with SPIB; 0.973 in the assay with ETV5; 0.94 in the assay with ELF4; 0.853 with ETV2. The sequence further showed a binding signal in the assay with ETV3L of 0.969.
Consider GCAGTG, for which the binding signal in the assay with FLI1 was determined as 0.56; in the assay with EHF, 0.504; with SPIB, 0.571; with ETV5 it was 0.566; in the assay with ELF4 it was 0.613; with ETV2 it was 0.53. In the assay with ETV3L, the binding signal turned out to be 0.563.
As to CAGCGA, the binding signal is 0.881 with FLI1; 0.86 with EHF; 0.969 with SPIB; 0.936 in the assay with ETV5; 0.838 in the assay with ELF4; 0.984 with ETV2. In the assay with ETV3L, this sequence showed a binding signal of 0.897.
For the sequence TGAGGT, the binding signal with FLI1 was 0.672; with EHF it was 0.614; in the assay with SPIB it was 0.597; with ETV5 it was 0.608; with ELF4, 0.64; with ETV2, 0.506. The binding signal with ETV3L worked out at 0.667.
In the case of GGCGCT, the binding signal was determined as 0.777 with FLI1; 0.655 in the assay with EHF; 0.697 with SPIB; 0.693 with ETV5; 0.728 with ELF4; 0.78 in the assay with ETV2. In the assay with ETV3L, this sequence gave a binding signal of 0.745.
With GGGAAC, the binding signal was 0.684 with FLI1; 0.683 with EHF; 0.658 with SPIB; 0.679 with ETV5; 0.614 with ELF4; 0.663 with ETV2. This sequence also came in with a binding signal with ETV3L of 0.666.
As for AGGGAC, the binding signal in the assay with FLI1 worked out at 0.757; in the assay with EHF it was 0.708; with SPIB, 0.751; in the assay with ETV5, 0.703; with ELF4, 0.781; with ETV2, 0.749. This sequence had a binding signal in the assay with ETV3L of 0.683.
With GTCATA, the binding signal with FLI1 stood at 0.735; with EHF, 0.742; with SPIB, 0.76; in the assay with ETV5, 0.749; in the assay with ELF4 it was 0.723; in the assay with ETV2, 0.742. In addition, the binding signal with ETV3L is 0.764.
Consider GACAGT, for which the binding signal stood at 0.484 with FLI1; 0.42 in the assay with EHF; 0.465 in the assay with SPIB; 0.466 in the assay with ETV5; 0.448 in the assay with ELF4; 0.509 with ETV2. Further, in the assay with ETV3L, the binding signal worked out at 0.478.
In the case of GTAACG, the binding signal in the assay with FLI1 was 0.967; in the assay with EHF it was 0.953; in the assay with SPIB it was 0.915; with ETV5, 0.907; with ELF4, 0.897; with ETV2, 1.08. The sequence also had a binding signal in the assay with ETV3L of 0.889.
Turning to GGTGCC, the binding signal with FLI1 stood at 0.706; with EHF, 0.726; with SPIB, 0.765; with ETV5 it was 0.791; in the assay with ELF4, 0.74; in the assay with ETV2, 0.696. The binding signal with ETV3L worked out at 0.826.
